From the supplement of paper PMC10849652
The other results are listed elsewhere or left out.

Amino acid sequences for entries named in this document (tags omitted). A change or cut given only in a name is not applied to a line headed by its entry.
UniProt Q96AT9: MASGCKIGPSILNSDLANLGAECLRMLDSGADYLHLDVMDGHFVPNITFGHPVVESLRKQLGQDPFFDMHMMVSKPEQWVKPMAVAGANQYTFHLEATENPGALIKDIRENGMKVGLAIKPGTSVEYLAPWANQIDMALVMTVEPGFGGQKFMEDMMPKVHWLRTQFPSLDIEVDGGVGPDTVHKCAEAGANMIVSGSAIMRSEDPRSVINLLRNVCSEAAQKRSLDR
UniProt Q8IXW5, whole entry, looked up: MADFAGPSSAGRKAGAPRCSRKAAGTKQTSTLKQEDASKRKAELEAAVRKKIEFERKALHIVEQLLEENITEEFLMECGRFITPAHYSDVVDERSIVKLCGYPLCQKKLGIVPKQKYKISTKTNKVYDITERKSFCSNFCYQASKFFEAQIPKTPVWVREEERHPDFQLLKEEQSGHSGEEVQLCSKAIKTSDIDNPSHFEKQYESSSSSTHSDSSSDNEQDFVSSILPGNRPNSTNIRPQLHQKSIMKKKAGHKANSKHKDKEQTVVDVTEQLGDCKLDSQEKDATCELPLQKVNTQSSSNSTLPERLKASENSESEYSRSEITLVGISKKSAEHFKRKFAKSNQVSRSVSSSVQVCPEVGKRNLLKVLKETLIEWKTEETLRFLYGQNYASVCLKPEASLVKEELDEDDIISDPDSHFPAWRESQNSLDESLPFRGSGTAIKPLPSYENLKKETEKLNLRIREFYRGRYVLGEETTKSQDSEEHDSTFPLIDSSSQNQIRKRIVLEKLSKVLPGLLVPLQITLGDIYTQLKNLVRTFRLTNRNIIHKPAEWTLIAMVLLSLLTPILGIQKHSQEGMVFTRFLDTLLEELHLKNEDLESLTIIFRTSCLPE
UniProt O75150, whole entry, looked up: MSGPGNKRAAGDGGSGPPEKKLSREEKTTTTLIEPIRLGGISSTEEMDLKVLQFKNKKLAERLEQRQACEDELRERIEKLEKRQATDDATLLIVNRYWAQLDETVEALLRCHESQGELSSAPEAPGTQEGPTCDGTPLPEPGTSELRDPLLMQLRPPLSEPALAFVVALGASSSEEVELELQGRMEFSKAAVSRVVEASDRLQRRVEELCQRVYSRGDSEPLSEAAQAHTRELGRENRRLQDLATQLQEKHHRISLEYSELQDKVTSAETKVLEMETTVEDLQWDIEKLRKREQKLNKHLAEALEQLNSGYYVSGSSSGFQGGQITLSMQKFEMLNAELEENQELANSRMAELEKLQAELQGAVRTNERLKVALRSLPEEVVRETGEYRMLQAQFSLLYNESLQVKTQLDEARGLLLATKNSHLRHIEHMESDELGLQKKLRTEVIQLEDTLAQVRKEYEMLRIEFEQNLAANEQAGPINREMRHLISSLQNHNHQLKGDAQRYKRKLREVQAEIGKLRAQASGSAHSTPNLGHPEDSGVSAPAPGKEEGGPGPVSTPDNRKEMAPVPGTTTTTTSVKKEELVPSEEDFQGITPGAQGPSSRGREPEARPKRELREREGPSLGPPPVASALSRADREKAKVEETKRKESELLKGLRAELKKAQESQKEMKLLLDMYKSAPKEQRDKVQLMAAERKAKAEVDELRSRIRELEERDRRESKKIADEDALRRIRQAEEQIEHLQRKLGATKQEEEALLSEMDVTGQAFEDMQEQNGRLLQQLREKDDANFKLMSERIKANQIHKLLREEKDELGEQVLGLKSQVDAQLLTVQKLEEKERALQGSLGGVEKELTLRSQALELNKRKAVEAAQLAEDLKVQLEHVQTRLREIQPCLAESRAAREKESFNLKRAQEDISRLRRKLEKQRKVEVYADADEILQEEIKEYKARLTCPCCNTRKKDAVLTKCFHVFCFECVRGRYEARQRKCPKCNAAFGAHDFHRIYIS
UniProt Q9NYV6: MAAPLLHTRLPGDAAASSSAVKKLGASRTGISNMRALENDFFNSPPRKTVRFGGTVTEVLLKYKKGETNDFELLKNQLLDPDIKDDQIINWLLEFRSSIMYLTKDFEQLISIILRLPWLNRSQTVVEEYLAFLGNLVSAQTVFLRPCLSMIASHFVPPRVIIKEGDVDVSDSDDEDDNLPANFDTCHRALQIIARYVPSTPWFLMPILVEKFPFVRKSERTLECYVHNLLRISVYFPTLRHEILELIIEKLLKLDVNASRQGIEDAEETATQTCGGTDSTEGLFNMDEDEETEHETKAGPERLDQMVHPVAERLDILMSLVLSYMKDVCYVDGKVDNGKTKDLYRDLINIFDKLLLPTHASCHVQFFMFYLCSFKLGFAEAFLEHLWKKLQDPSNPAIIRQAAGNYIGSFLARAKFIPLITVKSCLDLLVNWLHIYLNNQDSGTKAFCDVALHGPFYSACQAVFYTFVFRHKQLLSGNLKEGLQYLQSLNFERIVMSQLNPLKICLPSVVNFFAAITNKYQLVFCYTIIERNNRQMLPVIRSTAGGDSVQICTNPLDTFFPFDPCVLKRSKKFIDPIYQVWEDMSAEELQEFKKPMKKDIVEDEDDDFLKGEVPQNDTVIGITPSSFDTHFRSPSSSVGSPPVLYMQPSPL
UniProt O75582, whole entry, looked up: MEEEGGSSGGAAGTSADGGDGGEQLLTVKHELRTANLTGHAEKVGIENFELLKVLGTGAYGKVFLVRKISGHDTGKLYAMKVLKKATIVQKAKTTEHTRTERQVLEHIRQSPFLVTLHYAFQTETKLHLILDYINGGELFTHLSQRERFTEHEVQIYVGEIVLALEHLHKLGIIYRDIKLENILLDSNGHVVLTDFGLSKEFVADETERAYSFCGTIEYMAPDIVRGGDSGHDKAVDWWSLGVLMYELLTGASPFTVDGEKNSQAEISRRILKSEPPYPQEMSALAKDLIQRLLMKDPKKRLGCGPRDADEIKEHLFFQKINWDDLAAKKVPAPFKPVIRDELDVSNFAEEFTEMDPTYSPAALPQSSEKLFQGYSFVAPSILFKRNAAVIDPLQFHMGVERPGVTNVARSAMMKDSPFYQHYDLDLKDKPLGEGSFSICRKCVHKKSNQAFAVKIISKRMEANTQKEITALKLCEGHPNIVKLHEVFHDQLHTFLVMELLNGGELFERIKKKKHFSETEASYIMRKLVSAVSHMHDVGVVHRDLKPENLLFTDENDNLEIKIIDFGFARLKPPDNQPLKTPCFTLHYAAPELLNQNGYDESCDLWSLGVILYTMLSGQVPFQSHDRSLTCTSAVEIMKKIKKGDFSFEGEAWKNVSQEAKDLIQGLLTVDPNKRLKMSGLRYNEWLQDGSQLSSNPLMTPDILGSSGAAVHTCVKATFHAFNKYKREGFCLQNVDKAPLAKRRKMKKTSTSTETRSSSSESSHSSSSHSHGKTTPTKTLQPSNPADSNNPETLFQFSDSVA
UniProt Q9GZN7, whole entry, looked up: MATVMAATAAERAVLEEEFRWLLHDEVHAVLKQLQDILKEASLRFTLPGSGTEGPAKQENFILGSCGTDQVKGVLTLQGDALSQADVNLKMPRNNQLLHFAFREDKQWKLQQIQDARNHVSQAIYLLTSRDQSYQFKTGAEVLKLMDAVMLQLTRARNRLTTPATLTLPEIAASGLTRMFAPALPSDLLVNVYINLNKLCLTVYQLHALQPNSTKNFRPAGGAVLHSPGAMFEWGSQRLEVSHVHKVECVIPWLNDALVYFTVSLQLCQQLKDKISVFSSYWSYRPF
UniProt Q9BY78: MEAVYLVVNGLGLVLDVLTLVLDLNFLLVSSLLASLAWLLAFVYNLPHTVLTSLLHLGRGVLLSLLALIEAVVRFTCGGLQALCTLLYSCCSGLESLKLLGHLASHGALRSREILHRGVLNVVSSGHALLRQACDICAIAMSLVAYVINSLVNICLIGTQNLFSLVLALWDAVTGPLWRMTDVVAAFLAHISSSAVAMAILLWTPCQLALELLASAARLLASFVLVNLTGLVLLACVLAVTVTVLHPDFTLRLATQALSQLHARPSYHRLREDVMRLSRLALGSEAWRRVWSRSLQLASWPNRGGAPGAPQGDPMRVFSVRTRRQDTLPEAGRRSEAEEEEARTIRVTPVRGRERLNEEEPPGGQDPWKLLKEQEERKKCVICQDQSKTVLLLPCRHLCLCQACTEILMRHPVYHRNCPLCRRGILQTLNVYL
UniProt P56182: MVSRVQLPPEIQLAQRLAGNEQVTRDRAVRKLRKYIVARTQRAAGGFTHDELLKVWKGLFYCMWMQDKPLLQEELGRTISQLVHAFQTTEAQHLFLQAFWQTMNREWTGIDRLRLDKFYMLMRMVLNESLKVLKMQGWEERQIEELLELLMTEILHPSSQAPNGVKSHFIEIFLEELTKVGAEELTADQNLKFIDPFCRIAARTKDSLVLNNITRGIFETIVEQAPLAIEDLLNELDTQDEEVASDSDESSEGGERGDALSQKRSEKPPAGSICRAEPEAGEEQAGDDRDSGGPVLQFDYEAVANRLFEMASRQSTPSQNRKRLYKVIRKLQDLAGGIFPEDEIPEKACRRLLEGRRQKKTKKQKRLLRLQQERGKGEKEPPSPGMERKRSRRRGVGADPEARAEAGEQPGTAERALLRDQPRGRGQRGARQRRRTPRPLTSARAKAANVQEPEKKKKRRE
UniProt Q92834: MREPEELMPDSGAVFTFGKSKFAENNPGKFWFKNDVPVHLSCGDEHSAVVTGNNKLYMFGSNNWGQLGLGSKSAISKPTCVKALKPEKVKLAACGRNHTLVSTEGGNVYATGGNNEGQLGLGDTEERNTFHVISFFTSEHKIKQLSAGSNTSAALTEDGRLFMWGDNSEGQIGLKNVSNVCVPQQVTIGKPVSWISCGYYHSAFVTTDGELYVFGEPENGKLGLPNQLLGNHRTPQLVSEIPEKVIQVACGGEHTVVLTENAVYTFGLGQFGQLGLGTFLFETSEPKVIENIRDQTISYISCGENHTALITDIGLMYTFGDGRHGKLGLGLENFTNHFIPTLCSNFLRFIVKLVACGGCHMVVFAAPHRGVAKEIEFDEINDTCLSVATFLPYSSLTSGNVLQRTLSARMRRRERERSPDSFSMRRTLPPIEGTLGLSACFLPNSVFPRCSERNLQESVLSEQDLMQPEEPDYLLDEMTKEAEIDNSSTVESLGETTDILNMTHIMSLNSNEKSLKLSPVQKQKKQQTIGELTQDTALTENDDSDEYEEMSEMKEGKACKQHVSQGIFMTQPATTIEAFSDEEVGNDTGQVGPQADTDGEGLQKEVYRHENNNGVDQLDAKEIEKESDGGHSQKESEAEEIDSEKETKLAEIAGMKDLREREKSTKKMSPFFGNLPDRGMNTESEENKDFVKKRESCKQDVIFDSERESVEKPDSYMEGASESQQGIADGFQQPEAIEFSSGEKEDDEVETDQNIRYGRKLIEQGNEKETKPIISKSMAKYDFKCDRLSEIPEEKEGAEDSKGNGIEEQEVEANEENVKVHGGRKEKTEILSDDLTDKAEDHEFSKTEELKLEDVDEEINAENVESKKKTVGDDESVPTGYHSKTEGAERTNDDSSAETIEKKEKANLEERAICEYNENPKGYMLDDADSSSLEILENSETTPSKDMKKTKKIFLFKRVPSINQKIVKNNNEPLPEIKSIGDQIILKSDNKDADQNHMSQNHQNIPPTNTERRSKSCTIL
UniProt Q96CM3: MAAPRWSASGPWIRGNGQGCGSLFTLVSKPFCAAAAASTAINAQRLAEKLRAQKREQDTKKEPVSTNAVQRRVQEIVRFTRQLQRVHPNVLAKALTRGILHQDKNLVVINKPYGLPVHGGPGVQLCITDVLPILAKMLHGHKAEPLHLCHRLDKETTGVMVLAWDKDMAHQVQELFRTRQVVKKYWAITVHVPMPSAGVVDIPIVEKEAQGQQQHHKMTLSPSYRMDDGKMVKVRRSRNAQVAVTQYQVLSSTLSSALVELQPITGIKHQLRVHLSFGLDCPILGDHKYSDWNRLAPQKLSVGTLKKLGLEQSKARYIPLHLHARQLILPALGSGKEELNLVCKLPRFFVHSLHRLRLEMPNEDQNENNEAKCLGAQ
UniProt Q9H4P4: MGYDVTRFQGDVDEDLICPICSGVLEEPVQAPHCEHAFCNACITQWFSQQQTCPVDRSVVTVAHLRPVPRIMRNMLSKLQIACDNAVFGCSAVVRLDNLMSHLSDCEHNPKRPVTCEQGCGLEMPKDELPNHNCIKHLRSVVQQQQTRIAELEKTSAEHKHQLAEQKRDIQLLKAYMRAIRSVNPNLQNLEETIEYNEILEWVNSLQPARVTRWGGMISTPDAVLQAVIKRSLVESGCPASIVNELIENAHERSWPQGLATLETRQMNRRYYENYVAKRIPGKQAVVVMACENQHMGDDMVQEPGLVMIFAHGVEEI
UniProt Q96P16: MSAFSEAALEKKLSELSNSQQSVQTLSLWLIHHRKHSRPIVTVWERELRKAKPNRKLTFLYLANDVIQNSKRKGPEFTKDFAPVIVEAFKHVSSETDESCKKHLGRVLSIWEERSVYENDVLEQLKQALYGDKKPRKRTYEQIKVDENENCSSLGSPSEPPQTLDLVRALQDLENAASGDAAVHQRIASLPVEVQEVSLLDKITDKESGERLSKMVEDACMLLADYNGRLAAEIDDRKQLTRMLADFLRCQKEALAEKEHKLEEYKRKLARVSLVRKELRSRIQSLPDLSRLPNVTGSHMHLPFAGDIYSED

What was measured:
Test in all cases: log2 fold change, soluble protein after heating vs DMSO (PISA); higher = thermal stabilisation; K562 cells, 10 uM, 30 min; active = over 0.2 and 3.5 SD of the protein, either way, in both replicates (recomputed)
bafetinib = compound: Cc1ccc(NC(=O)c2ccc(CN3CC[C@H](N(C)C)C3)c(C(F)(F)F)c2)cc1Nc1nccc(-c2cncnc2)n1 [bafetinib]
How it was run: (§1)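 Aliquots of K562 cells (2×10^6 cells/mL) treated with 10 μM compound for 30 min were heated for 3 min over 48°C-58°C. After pooling and extraction in PBS with 0.5% NP-40 at 4°C, soluble protein from a 21,000xg, 90 min spin was quantified by TMTpro 16plex LC-MS/MS with channel sums equalised. Thermal stability is expressed against control samples, from duplicates, as a log2 fold change.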

nilotinib = compound: Cc1cn(-c2cc(NC(=O)c3ccc(C)c(Nc4nccc(-c5cccnc5)n4)c3)cc(C(F)(F)F)c2)cn1 [nilotinib]
How it was run: as §1

[1] = compound: Cc1nc(Nc2n[nH]c3c2CN(C(=O)N[C@H](CN(C)C)c2ccccc2)C3(C)C)c2sccc2n1
How it was run: as §1

dasatinib = compound: Cc1nc(Nc2ncc(C(=O)Nc3c(C)cccc3Cl)s2)cc(N2CCN(CCO)CC2)n1 [dasatinib]
How it was run: as §1

[2] = compound: Cc1ncc(-c2ccnc(Nc3ccc(S(C)(=O)=O)cc3)n2)n1C(C)C
How it was run: as §1

[3] = compound: Cn1cc(-c2ccc3c(c2)CCN3C(=O)Cc2cccc(C(F)(F)F)c2)c2c(N)ncnc21
How it was run: as §1

[4] = compound: Cn1cc(-c2ccc3nnc(C(F)(F)c4ccc5ncccc5c4)n3n2)cn1
How it was run: as §1

tipifarnib = compound: Cn1cncc1[C@@](N)(c1ccc(Cl)cc1)c1ccc2c(c1)c(-c1cccc(Cl)c1)cc(=O)n2C [tipifarnib]
How it was run: as §1

mubritinib = compound: FC(F)(F)c1ccc(/C=C/c2nc(COc3ccc(CCCCn4ccnn4)cc3)co2)cc1 [mubritinib]
How it was run: as §1

[5] = compound: NC(=O)c1cnc(N[C@@H]2CCCC[C@@H]2N)nc1Nc1cccc(-n2nccn2)c1
How it was run: as §1

[6] = compound: NC1(c2ccc(-c3nc4ccn5c(=O)[nH]nc5c4cc3-c3ccccc3)cc2)CCC1
How it was run: as §1

[7] = compound: NCC(=O)Nc1ccc(-n2nc(C(F)(F)F)cc2-c2ccc3c(ccc4ccccc43)c2)cc1
How it was run: as §1

citarinostat = compound: O=C(CCCCCCNC(=O)c1cnc(N(c2ccccc2)c2ccccc2Cl)nc1)NO [citarinostat]
How it was run: as §1

silmitasertib = compound: O=C(O)c1ccc2c(c1)nc(Nc1cccc(Cl)c1)c1ccncc12 [silmitasertib]
How it was run: as §1

[8] = compound: O=C1NC(=O)C(c2cnc3ccccn23)=C1c1cn2c3c(cc(F)cc13)CN(C(=O)N1CCCCC1)CC2
How it was run: as §1

[9] = compound: c1cc(OCCN2CCCCC2)cc(-c2n[nH]c3ccc(-c4nnc[nH]4)cc23)c1
How it was run: as §1

[10] = compound: Cc1cccc(CC(=O)N2CCc3c2ccc(-c2cn(C)c4ncnc(N)c24)c3F)n1
How it was run: as §1

[11] = compound: NC(=O)Nc1cc(-c2cccc(F)c2)sc1C(=O)N[C@H]1CCCNC1
How it was run: as §1

entinostat = compound: Nc1ccccc1NC(=O)c1ccc(CNC(=O)OCc2cccnc2)cc1 [entinostat]
How it was run: as §1

vorinostat = compound: O=C(CCCCCCC(=O)Nc1ccccc1)NO [vorinostat]
How it was run: as §1

Measured: log2 fold change

RPE (UniProt Q96AT9)
inactive: bafetinib 0.015 | nilotinib 0.028 | [1] 0.228 | dasatinib 0.092 | [2] 0.033 | [3] 0.015 | [4] 0.095 | tipifarnib -0.076 | mubritinib 0.08 | [5] -0.02 | [6] -0.06 | [7] 0.071 | citarinostat 0.084 | silmitasertib -0.009 | [8] -0.466 | [9] -0.052

RPAP2 (UniProt Q8IXW5)
inactive: [10] 0.056 | [3] 0 | [4] -0.203 | [11] 0.065 | [5] -0.301 | entinostat -0.074 | vorinostat 0.168 | [8] 0.108

RNF31 (UniProt Q96EP0)
inactive: [10] -0.084 | nilotinib -0.046 | [1] -0.231 | [2] 0.097 | [11] -0.023 | [7] 0.055 | entinostat 0.094 | vorinostat 0.108 | [8] -0.043

RPS19 (UniProt M0R2L9)
inactive: nilotinib 0.116 | [1] 0 | [2] -0.267 | tipifarnib -0.126 | mubritinib 0.229 | [5] -0.159 | [6] 0.453 | silmitasertib -0.634

RPS6KB2 (UniProt Q9UBS0)
inactive: [3] 0.024 | mubritinib -0.205 | [6] -0.035 | silmitasertib 0.004 | [8] -0.017

RNF40 (UniProt O75150)
inactive: bafetinib -0.162 | dasatinib -0.271 | [3] 0.149 | [4] -0.07 | mubritinib -0.302 | [11] 0.095 | [6] -0.042 | [7] -0.423 | entinostat 0.259 | silmitasertib 0.259

RRN3 (UniProt Q9NYV6)
inactive: [10] -0.065 | tipifarnib -0.082 | vorinostat 0.043 | citarinostat 0.012 | [8] -0.216 | [9] -0.457

RPF2 (UniProt Q9H7B2)
inactive: [10] -0.151 | vorinostat 0.155

RPLP0 (UniProt F8VWV4)
inactive: [3] 0.083 | [11] -0.134 | [5] 0 | entinostat 0.001 | [8] 0.12

RPUSD3 (UniProt Q6P087)
inactive: [10] 0.018 | nilotinib -0.231 | [1] 0.035 | [2] 0.024 | tipifarnib 0.051 | mubritinib 0.161 | [5] 0.017 | [6] -0.398 | vorinostat 0.033 | silmitasertib -0.023

RPS6KA5 (UniProt O75582)
inactive: [4] -0.098 | tipifarnib -0.07 | mubritinib -0.171 | [6] -0.138 | citarinostat -0.101 | silmitasertib 0.045 | [8] -0.088 | [9] 0.092

ROGDI (UniProt Q9GZN7)
inactive: [10] 0.082 | [3] -0.055 | [4] 0.104 | vorinostat 0.16 | citarinostat -0.16 | [9] -0.295

ROS1 (UniProt P08922)
inactive: bafetinib 0.017 | [10] -0.192 | nilotinib -0.102 | [1] 0.03 | [2] -0.21 | [3] 0.059 | tipifarnib 0.068 | mubritinib 0.106 | [11] -0.337 | [5] -0.214 | [6] 0.011 | entinostat -0.119 | vorinostat -0.091 | citarinostat -0.083 | silmitasertib 0.09 | [9] -0.037

RNF26 (UniProt Q9BY78)
inactive: bafetinib 0.083 | [10] 0.111 | [4] -0.011 | [7] -0.161 | vorinostat -0.094

RREB1 isoform 2 (UniProt Q92766)
inactive: bafetinib -0.009 | [10] 0.051 | dasatinib -0.082 | [3] -0.019 | [4] -0.035 | tipifarnib 0.001 | mubritinib 0.056 | [11] 0.053 | [6] -0.026 | [7] 0.052 | entinostat -0.143 | vorinostat -0.192 | citarinostat -0.108 | silmitasertib -0.136 | [8] 0.067 | [9] -0.105

RPP30 (UniProt Q5VU11)
inactive: bafetinib 0.074 | [10] 0.091 | nilotinib -0.101 | [1] -0.115 | dasatinib -0.045 | [2] -0.022 | [4] -0.013 | vorinostat -0.135

6 neighbouring entries from above, for reference:
RPLP0 (UniProt F8VWV4)
inactive: [3] 0.083 | [11] -0.134 | [5] 0 | entinostat 0.001 | [8] 0.12

RPUSD3 (UniProt Q6P087)
inactive: [10] 0.018 | nilotinib -0.231 | [1] 0.035 | [2] 0.024 | tipifarnib 0.051 | mubritinib 0.161 | [5] 0.017 | [6] -0.398 | vorinostat 0.033 | silmitasertib -0.023

RPS6KA5 (UniProt O75582)
inactive: [4] -0.098 | tipifarnib -0.07 | mubritinib -0.171 | [6] -0.138 | citarinostat -0.101 | silmitasertib 0.045 | [8] -0.088 | [9] 0.092

ROGDI (UniProt Q9GZN7)
inactive: [10] 0.082 | [3] -0.055 | [4] 0.104 | vorinostat 0.16 | citarinostat -0.16 | [9] -0.295

ROS1 (UniProt P08922)
inactive: bafetinib 0.017 | [10] -0.192 | nilotinib -0.102 | [1] 0.03 | [2] -0.21 | [3] 0.059 | tipifarnib 0.068 | mubritinib 0.106 | [11] -0.337 | [5] -0.214 | [6] 0.011 | entinostat -0.119 | vorinostat -0.091 | citarinostat -0.083 | silmitasertib 0.09 | [9] -0.037

RNF26 (UniProt Q9BY78)
inactive: bafetinib 0.083 | [10] 0.111 | [4] -0.011 | [7] -0.161 | vorinostat -0.094

Later entries

RPS7, A0A2R8Y623
inactive: bafetinib 0.308 | nilotinib -0.185 | [1] 0.117 | [2] 0.039 | [4] 0.192 | mubritinib 0.038 | [11] 0.286 | [5] 0.572 | [6] -0.117 | [7] 0.172 | entinostat 0.18 | citarinostat -0.189 | silmitasertib -0.194 | [9] 0.959

RPS3A (UniProt D6R9B6)
inactive: dasatinib 0.155 | [11] -0.41 | [5] -0.391 | entinostat -0.234

RNFT1 (UniProt Q5M7Z0)
inactive: [10] -0.112 | nilotinib -0.095 | [1] -0.064 | [2] -0.063 | [4] -0.248 | tipifarnib 0.129 | mubritinib 0.038 | [6] -0.081 | vorinostat -0.069 | silmitasertib 0.023 | [8] -0.044

RPL22L1 (UniProt Q6P5R6)
inactive: [11] 0.046 | entinostat 0.074 | citarinostat -0.131 | [8] 0.225 | [9] 0.018

RRP1 (UniProt P56182)
inactive: [10] -0.112 | [4] 0.007 | [7] 0.081 | vorinostat 0.45

RPGR (UniProt Q92834)
inactive: [8] 0.077

RPUSD4 (UniProt Q96CM3)
inactive: [10] -0.027 | [3] -0.335 | [4] -0.053 | tipifarnib 0.181 | mubritinib -0.453 | [11] 0.062 | [5] 0.073 | [6] -0.06 | entinostat 0.046 | vorinostat -0.058 | silmitasertib -0.028 | [8] 0.132

RPSA (UniProt F8WD59)
inactive: mubritinib -0.253 | [6] 0.105 | silmitasertib 0

RPL7L1 (UniProt Q6DKI1)
inactive: bafetinib -0.135 | [10] -0.03 | nilotinib 0.019 | [1] 0.058 | dasatinib 0.246 | [2] -0.092 | [4] -0.059 | [7] 0.075 | vorinostat 0.185 | citarinostat -0.138 | [8] 0.165 | [9] -0.013

RNF41 (UniProt Q9H4P4)
inactive: bafetinib -0.09 | [5] 0.082 | citarinostat 0.044 | [9] -0.018

RPRD1A (UniProt Q96P16)
inactive: [10] 0.017 | dasatinib 0.005 | [4] -0.118 | [11] 0.098 | [5] 0.084 | [7] 0.002 | entinostat 0.258 | vorinostat 0.105 | [8] -0.013

RPS3 (UniProt E9PJN9)
inactive: [10] 0.076 | dasatinib -0.207 | [4] -0.159 | vorinostat 0.2 | citarinostat 0 | [9] -0.048
